Results are given in words; binding and its absence hold for the method and conditions named. Binding calls can cover weak binding; strength is not graded here.
Legend:
[1] = target: cyno MAdCAM protein (cyno); assay: Octet
[2] = target: cyno MAdCAM protein (cyno); assay: ELISA

Binder | binding [1] | binding [2]
MAdCAM antibody Table 1 clone 20 (scFv) scFv: EVQLLESGGGLVQPGGSLRLSCAASGFTFDDYAMHWVRQAPGKGLEWVSYIDTSSSHLYYADSVKGRFTISRDNSKNTLYLQMNSLRAEDTAVYYCARDEAAAGYYGMDVWGQGTTVTVSSGGGGSGGGGSGGGGSGGGGSDIQMTQSPSSLSASVGDRVTITCQAGQDISNYLNWYQQKPGKAPKLLIYDASNLETGVPSRFSGSGSGTDFTLTISSLQPEDFATYYCQQTYSTPITFGQGTKLEIK | binds | 
MAdCAM antibody Table 1 clone 23 (scFv) scFv: EVQLLESGGGLVQPGGSLRLSCAASGFTFSSYAMHWVRQAPGKGLEWVSGISGSGGSAYYADSVKGRFTISRDNSKNTLYLQMNSLRAEDTAVYYCATSQAPVDYYYYGMDVWGQGTTVTVSSGGGGSGGGGSGGGGSGGGGSDIQMTQSPSSLSASVGDRVTITCRASQSISSWLAWYQQKPGKAPKLLIYAASNLQRGVPSRFSGSGSGTDFTLTISSLQPEDFATYYCQQSYSIPITFGQGTKVEIK | binds | 
MAdCAM antibody Table 1 clone 59 (scFv) scFv: EVQLLESGGGLVQPGGSLRLSCAASGFTFSDFWMHWVRQAPGKGLEWISYISGDSGYTNYADSVKGRFTISRDNSKNTLYLQMNSLRAEDTAVYYCARDRPYYYYMDVWGKGTTVTVSSGGGGSGGGGSGGGGSGGGGSDIQMTQSPSSLSASVGDRVTITCRASQSVSRSLAWYQQKPGKAPKLLIYAASSLQSGVPSRFSGSGSGTDFTLTISSLQPEDFATYYCQQYKSYPVTFGQGTKVEIK | binds | 
MAdCAM antibody Table 1 clone 60 (scFv) scFv: EVQLLESGGGLVQPGGSLRLSCAASGFTFDDYTMHWVRQAPGKGLEWVSDISGSGGSTYYADSVKGRFTISRDNSKNTLYLQMNSLRAEDTAVYYCAKDVVVAGTPLHFDYWGQGTLVTVSSGGGGSGGGGSGGGGSGGGGSDIQMTQSPSSLSASVGDRVTITCQASQDISNYLNWYQQKPGKAPKLLIYAASYLQSGVPSRFSGSGSGTDFTLTISSLQPEDFATYYCQQAHNYPITFGQGTRLEIK | binds | 
MAdCAM antibody Table 1 clone 61 (scFv) scFv: EVQLLESGGGLVQPGGSLRLSCAASEFTFSNAWMSWVRQAPGKGLEWVASISSTSAYIDYADSVKGRFTISRDNSKNTLYLQMNSLRAEDTAVYYCAREVVGATTFDYWGQGTLVTVSSGGGGSGGGGSGGGGSGGGGSDIQMTQSPSSLSASVGDRVTITCRASQSISTWLAWYQQKPGKAPKLLIYAASSLQSGVPSRFSGSGSGTDFTLTISSLQPEDFATYYCQQANAFPPTFGQGTRLEIK | binds | 
MAdCAM antibody Table 1 clone 63 (scFv) scFv: EVQLLESGGGLVKPGGSLRLSCAASGFTFDDYAMHWVRQAPGKGLEWVASITSSSAFIDYAASVKGRFTISRDDSKNTLYLQMNSLKTEDTAVYYCARERVDWNSYFDLWGRGTLVTVSSGGGGSGGGGSGGGGSGGGGSEIVMTQSPATLSVSPGERATLSCRASQGISNSYLAWYQQKPGQAPRLLIYGASTRATGIPARFSGSGSGTEFTLTISSLQSEDFAVYYCQQYYTYPPTFGPGTKVDIK | binds | 
MAdCAM antibody Table 1 clone 64 (scFv) scFv: EVQLLESGGGLVKPGGSLRLSCAASGFAFSSHWMHWVRQAPGKGLEWVAGTSGSGESRDYADFVKGRFTISRDDSKNTLYLQMNSLKTEDTAVYYCARETYYYYYMDVWGKGTTVTVSSGGGGSGGGGSGGGGSGGGGSDIQMTQSPSSLSASVGDRVTITCRASQGISNYLAWYQQKPGKAPKLLIYDAANLEGGVPSRFSGSGSGTDFTLTISSLQPEDFATYYCQQSDIFPPTFGQGTKVEIK | binds | 
MAdCAM antibody Table 1 clone 65 (scFv) scFv: QVQLVQSGAEVKKPGASVKVSCKASGYTFTRHWIHWVRQAPGQGLEWMGWINVKTGGAGYAQKFQGRVTMTRDTSTSTVYMELSSLRSEDTAVYYCARESSGWYGTDVWGQGTTVTVSSGGGGSGGGGSGGGGSGGGGSDIQMTQSPSSLSASVGDRATITCRASQSISNYLAWYQQKPGKAPKLLIYAASSLQSGVPSRFSGSGSGTDFTLTISSLQPEDFATYYCQQSNSFPLTFGGGTKVEIK | binds | 
MAdCAM antibody Table 1 clone 66 (scFv) scFv: EVQLLESGGGLVQPGGSLRLSCAASGFTFSSYWMHWVRQAPGKGLEWVAAISYDGKYKDYEDSVKGRFTISRDNSKNTLYLQMNSLRAEDTAVYYCARENKQWLASFDYWGQGTLVTVSSGGGGSGGGGSGGGGSGGGGSDIQMTQSPSSLSASVGDRVTITCQASQDISNFVNWYQQKPGKAPKLLIYAANLRSGVPSRFSGSGSGTDFTLTISSLQPEDFATYYCQQANSFPVTFGPGTKVDIK | binds | 
MAdCAM Antibody Table 2 clone 4 (antibody, V domains shown) VH: QVQLVQSGAEVKKPGASVKVSCKASGGTFSSYAISWVRQAPGQGLEWMGSINPSGDTTSYAQKFQGRVTMTRDTSTSTVYMELSSLRSEDTAVYYCAKDKAQWLVGYFDYWGQGTLVTVSS VL: DIQMTQSPSSLSASVGDRVTITCQASQDISNSLNWYQQKPGKAPKLLIYAASSLQSGVPSRFSGSGSGTDFTLTISSLQPEDFATYYCQQSYSSVITFGQGTKVEIK | binds | 
MAdCAM Antibody Table 2 clone 5 (antibody, V domains shown) VH: EVQLLESGGGLVQPGGSLRLSCAASGFTFSSYWMHWVRQAPGKGLEWVSSISPGGSNIDYADSVKGRFTISRDNSKNTLYLQMNSLRAEDTAVYYCAREVQLSHYDYWGQGTLVTVSS VL: DIQMTQSPSSLSASVGDRVTITCRASQGISNSLAWYQQKPGKAPKLLIYGASSLQSGVPSRFSGSGSGTDFTLTISSLQPEDFATYYCQQANSFPFTFGQGTKVEIK | binds | 
MAdCAM Antibody Table 2 clone 8 (antibody, V domains shown) VH: QVQLVQSGAEVKKPGASVKVSCKASGYTFTGYHIHWVRQAPGQGLEWMGIINPSGGSTIYAQKFQGRVTMTRDTSTSTVYMELSSLRSEDTAVYYCAKDWSSWYLGPFDYWGQGTLVTVSS VL: DIQMTQSPSSLSASVGDRVTITCRASQNISSSLNWYQQKPGKAPKLLIYAASSLQSGVPSRFSGSGSGTDFTLTISSLQPEDFATYYCQQSYTTPYTFGQGTKVEIK | binds | 
MAdCAM Antibody Table 2 clone 11 (antibody, V domains shown) VH: EVQLLESGGGLVQPGGSLRLSCAASGFTFSDYYMNWVRQAPGKGLEWVSVIGESGGSTYYADSVKGRFTISRDNSKNTLYLQMNSLRAEDTAVYYCAADPVSRWPKHGGGDYWGQGTLVTVSS VL: DIQMTQSPSSLSASVGDRVTITCRASQGISSSLAWYQQKPGKAPKLLIYAASTLQSGVPSRFSGSGSGTDFTLTISSLQPEDFATYYCQQSYSTPWTFGQGTKVEIK | binds | 
MAdCAM Antibody Table 2 clone 17 (antibody, V domains shown) VH: QVQLVQSGAEVKKPGSSVKVSCKASGYTFTDYHIHWVRQAPGQGLEWMGGIVPRSGSTTYAQKFQGRVTITADESTSTAYMELSSLRSEDTAVYYCAKDESSGWYYFDYWGQGTLVTVSS VL: DIVMTQSPLSLPVTPGEPASISCRSSQSLLHSNGYNYLDWYLQKPGQSPQLLIYSAYNRASGVPDRFSGSGSGTDFTLKISRVEAEDVGVYYCMQALQTPLTFGQGTKVEIK | binds | 
MAdCAM antibody Table 1 clone 8 (scFv) scFv: EVQLLESGGGLVQPGGSLRLSCAASGFMFGDYAMHWVRQAPGKGLEWVSAISGSGGSTYYADSVKGRFTISRDNSKNTLYLQMNSLRAEDTAVYYCAKDLVVAGIWYFDLWGRGTLVTVSSGGGGSGGGGSGGGGSGGGGSDIQMTQSPSSLSASVGDRVTITCRASQGISNNLNWYQQKPGKAPKLLIYDASSLESGVPSRFSGSGSGTDFTLTISSLQPEDFATYYCQQTHSFPSTFGQGTKLEIK |  | binds
MAdCAM antibody Table 1 clone 10 (scFv) scFv: QVQLVQSGAEVKKPGASVKVSCKASGYTLTTWYMYWVRQAPGQGLEWMGWINPNRGATNYAQKFQGRVTMTRDTSTSTVYMELSSLRSEDTAVYYCAKGDLWGAMDVWGQGTLVTVSSGGGGSGGGGSGGGGSGGGGSDIQMTQSPSSLSASVGDRVTITCRASDNIGSWLAWYQQKPGKAPKLLIYAASSLQSGVPSRFSGSGSGTDFTLTISSLQPEDFATYYCQQGYSTPPTFGQGTKVEIK |  | binds
MAdCAM antibody Table 1 clone 11 (scFv) scFv: QVQLVQSGAEVKKPGASVKVSCKASGYTFTTYYMHWVRQAPGQGLEWMGGFDPEDGETIYAQKFQGRVTMTRDTSTSTVYMELSSLRSEDTAVYYCARHAVAGAVGAGYYYYGMDVWGQGTMVTVSSGGGGSGGGGSGGGGSGGGGSDIQMTQSPSSLSASVGDRVTITCRASESISNWLAWYQQKPGKAPKLLIYAASTLQSGVPSRFSGSGSGTDFTLTISSLQPEDFATYYCQQSYSVPFTFGPGTKVDIK |  | binds
MAdCAM antibody Table 1 clone 12 (scFv) scFv: QVQLVQSGAEVKKPGASVKVSCKASGYTFTGYYMHWVRQAPGQGLEWMGWIGPNSGDTNYAQKFQGRVTMTRDTSTSTVYMELSSLRSEDTAVYYCARDLDHNWYFDLWGRGTLVTVSSGGGGSGGGGSGGGGSGGGGSDIVMTQSPLSLPVTPGEPASISCRSSQSLLHSNGYNYLDWYLQKPGQSPQLLIYSSSNRAPGVPDRFSGSGSGTDFTLKISRVEAEDVGVYYCMQALHIPLTFGGGTKVEIK |  | binds
MAdCAM antibody Table 1 clone 13 (scFv) scFv: EVQLLESGGGLVQPGGSLRLSCAASGFTFDDYAMHWVRQAPGKGLEWVSYIDASGTTIYYADSVKGRFTISRDNSKNTLYLQMNSLRAEDTAVYYCAKDQAAAGYWYFDLWGRGTLVTVSSGGGGSGGGGSGGGGSGGGGSDIQMTQSPSSLSASVGDRVTITCQASQDISNYLNWYQQKPGKAPKLLIYKASTLESGVPSRFSGSGSGTDFTLTISSLQPEDFATYYCQQSYSTPITFGQGTRLEIK |  | binds
MAdCAM antibody Table 1 clone 14 (scFv) scFv: QVQLVQSGAEVKKPGSSVKVSCKASGYTFTDYHIHWVRQAPGQGLEWMGGIVPRSGSTTYAQKFQGRVTITADESTSTAYMELSSLRSEDTAVYYCAKDESSGWYYFDYWGQGTLVTVSSGGGGSGGGGSGGGGSGGGGSDIVMTQSPLSLPVTPGEPASISCRSSQSLLHSNGYNYLDWYLQKPGQSPQLLIYSAYNRASGVPDRFSGSGSGTDFTLKISRVEAEDVGVYYCMQALQTPLTFGQGTKVEIK |  | binds
MAdCAM antibody Table 1 clone 15 (scFv) scFv: QVQLVQSGAEVKKPGSSVKVSCKASGYTFTNYYMHWVRQAPGQGLEWMGGIIPIVDRVKYAQKFQGRVTITADESTSTAYMELSSLRSEDTAVYYCAKGRYTVNYYYGMDVWGQGTTVTVSSGGGGSGGGGSGGGGSGGGGSDIQMTQSPSSLSASVGDRVTITCQANQDISNYLNWYQQKPGKAPKLLIYRASKLEAGVPSRFSGSGSGTDFTLTISSLQPEDFATYYCQQSSEIPYSFGQGTKLEIK |  | binds

Reference: patent publication US20230235004A1
